The values that follow come from paper PMC5325399.

Chains of the proteins cited; added tags and fusions are not shown.
UniProt Q02248: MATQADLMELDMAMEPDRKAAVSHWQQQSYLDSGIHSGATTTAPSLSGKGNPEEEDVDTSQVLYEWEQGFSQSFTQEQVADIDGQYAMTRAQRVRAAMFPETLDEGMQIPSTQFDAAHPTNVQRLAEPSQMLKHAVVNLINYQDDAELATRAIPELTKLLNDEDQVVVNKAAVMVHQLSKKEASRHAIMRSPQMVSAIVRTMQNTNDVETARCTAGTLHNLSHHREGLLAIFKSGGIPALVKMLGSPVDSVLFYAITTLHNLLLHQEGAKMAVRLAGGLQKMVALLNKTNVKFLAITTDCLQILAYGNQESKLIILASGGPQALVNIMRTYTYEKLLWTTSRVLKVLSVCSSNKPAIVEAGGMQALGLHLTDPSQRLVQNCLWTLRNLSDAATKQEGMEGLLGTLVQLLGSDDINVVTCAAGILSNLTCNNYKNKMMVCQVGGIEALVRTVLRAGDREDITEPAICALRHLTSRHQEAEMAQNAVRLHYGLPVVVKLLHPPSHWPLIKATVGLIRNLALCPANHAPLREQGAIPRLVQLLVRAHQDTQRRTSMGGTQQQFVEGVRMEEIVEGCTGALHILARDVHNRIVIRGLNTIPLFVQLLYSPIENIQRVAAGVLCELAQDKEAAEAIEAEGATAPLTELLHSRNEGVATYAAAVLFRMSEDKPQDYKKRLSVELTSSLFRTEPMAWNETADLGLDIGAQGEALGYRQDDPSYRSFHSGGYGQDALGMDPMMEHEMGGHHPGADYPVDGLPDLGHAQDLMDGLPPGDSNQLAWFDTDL

For the test, the target named is T1, carcinoembryonic antigen-related cell adhesion molecule 1 (CEACAM1) (mouse (endogenous in G-2 cells)) (UniProt P31809).
T1 sequence: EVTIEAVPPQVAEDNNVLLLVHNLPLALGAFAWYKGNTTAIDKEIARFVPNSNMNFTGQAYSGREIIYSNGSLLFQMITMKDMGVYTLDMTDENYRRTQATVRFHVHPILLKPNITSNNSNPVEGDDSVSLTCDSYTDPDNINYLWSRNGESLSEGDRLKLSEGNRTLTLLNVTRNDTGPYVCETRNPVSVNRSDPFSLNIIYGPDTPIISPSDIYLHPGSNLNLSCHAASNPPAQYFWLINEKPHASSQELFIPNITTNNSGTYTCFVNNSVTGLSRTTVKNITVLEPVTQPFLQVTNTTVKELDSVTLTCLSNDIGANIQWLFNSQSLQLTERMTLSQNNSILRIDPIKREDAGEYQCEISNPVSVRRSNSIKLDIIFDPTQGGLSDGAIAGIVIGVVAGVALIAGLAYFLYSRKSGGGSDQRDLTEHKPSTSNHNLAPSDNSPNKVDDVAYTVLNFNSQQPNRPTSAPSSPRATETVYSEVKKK
The test can be described thus: co-IP; 200 μg G-2 cell lysate in CHAPS buffer (100 mM Tris-HCl pH 7.4, 50 mM NaCl, 1 mM EDTA, 1% NP40, 0,1% CHAPS); anti-mouse CEACAM1 antibody CC1 or anti-E-cadherin antibodies on protein G sepharose, overnight at 4°C; immunoblot with anti-β-catenin and anti-CEACAM1.

These are yes or no findings as the source states them, for the method shown. In cells and extracts the contact can be indirect. Some results given as binding are weak or reduced against the parent protein; the word gives no strength.

In the case of β-catenin (from UniProt Q02248 1-781), the binding result is recorded as “binds”.
